# Experimental data published in US5750566A, “Synthetic excitatory amino acids” (Eli Lilly and Company, priority 1995, dated 1998).
# System: Long Evans rats
# Assay: Auditory startle after diazepam withdrawal
# Type: in vivo, rat (Long Evans)
# Settings: first four days after cessation, vs control rats receiving vehicle; diazepam 10 mg/kg/day s.c.
smiles,measurement,value
CN1C(=O)CN=C(c2ccccc2)c2cc(Cl)ccc21 [Diazepam],auditory startle responding following cessation of chronic diazepam exposure,significantly increased
